Experimental data published in doi:10.1101/2024.12.26.629959.

Chains of the proteins cited; added tags and fusions are not shown. Lines headed by an entry give the natural chain unless they say otherwise; changes in a name come on top. Residues count along the entry.
UniProt O08532, residues 25-1073: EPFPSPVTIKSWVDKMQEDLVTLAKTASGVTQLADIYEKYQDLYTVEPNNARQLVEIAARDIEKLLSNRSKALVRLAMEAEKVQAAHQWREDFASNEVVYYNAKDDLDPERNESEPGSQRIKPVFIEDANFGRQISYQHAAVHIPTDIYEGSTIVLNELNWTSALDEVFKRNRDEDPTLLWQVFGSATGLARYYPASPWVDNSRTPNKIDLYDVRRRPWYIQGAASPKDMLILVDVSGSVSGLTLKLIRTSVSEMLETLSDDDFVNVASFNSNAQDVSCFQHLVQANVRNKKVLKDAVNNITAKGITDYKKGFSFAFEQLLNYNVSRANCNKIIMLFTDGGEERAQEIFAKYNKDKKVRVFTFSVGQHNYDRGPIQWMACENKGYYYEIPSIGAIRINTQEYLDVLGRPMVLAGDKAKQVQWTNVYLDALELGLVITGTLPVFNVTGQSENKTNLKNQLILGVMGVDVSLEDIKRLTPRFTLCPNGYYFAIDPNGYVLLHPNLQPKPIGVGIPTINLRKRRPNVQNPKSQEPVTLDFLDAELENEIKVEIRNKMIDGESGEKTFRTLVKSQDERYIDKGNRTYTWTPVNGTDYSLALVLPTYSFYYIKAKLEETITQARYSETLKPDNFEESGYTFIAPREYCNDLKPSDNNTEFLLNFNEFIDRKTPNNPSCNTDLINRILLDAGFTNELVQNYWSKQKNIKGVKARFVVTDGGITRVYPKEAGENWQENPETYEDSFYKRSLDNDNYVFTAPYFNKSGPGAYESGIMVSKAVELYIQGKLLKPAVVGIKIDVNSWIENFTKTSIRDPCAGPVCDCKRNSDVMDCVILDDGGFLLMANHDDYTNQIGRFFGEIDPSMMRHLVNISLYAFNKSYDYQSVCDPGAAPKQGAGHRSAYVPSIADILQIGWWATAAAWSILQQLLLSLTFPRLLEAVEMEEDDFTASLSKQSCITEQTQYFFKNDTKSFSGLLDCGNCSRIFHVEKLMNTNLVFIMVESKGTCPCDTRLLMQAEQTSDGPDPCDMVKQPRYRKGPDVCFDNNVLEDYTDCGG
UniProt P11627, residues 20-1260: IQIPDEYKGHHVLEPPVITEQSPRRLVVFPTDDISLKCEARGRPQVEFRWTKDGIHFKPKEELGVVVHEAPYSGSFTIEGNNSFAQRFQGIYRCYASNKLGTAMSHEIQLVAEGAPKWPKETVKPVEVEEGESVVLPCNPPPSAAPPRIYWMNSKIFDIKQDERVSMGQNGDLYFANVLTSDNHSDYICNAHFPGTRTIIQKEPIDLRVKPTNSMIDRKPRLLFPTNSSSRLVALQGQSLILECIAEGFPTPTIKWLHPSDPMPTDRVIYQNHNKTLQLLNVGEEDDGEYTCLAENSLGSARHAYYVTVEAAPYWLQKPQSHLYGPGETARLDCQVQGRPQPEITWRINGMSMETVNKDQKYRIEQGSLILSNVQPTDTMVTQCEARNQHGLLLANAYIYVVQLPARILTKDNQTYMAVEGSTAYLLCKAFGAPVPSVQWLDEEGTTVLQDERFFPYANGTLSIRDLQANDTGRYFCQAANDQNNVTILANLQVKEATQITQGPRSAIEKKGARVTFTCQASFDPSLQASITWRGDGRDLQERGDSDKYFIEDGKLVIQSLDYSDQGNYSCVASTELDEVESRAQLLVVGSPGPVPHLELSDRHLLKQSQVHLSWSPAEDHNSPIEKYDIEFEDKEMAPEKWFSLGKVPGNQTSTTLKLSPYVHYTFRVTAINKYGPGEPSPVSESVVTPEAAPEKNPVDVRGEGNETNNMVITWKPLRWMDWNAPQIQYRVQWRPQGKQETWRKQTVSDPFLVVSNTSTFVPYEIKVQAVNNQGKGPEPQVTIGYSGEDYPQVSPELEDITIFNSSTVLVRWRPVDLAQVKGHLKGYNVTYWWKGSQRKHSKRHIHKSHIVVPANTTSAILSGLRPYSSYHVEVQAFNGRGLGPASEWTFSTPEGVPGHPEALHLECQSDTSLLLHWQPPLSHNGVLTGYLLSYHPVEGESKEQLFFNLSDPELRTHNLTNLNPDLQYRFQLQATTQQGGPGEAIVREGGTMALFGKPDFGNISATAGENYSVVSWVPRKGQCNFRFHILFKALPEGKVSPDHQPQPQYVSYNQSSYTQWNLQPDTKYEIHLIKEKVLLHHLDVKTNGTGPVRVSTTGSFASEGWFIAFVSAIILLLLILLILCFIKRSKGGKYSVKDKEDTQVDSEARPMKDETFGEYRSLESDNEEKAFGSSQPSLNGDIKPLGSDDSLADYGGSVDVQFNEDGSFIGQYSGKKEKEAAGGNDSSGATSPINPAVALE
UniProt Q9R0K7: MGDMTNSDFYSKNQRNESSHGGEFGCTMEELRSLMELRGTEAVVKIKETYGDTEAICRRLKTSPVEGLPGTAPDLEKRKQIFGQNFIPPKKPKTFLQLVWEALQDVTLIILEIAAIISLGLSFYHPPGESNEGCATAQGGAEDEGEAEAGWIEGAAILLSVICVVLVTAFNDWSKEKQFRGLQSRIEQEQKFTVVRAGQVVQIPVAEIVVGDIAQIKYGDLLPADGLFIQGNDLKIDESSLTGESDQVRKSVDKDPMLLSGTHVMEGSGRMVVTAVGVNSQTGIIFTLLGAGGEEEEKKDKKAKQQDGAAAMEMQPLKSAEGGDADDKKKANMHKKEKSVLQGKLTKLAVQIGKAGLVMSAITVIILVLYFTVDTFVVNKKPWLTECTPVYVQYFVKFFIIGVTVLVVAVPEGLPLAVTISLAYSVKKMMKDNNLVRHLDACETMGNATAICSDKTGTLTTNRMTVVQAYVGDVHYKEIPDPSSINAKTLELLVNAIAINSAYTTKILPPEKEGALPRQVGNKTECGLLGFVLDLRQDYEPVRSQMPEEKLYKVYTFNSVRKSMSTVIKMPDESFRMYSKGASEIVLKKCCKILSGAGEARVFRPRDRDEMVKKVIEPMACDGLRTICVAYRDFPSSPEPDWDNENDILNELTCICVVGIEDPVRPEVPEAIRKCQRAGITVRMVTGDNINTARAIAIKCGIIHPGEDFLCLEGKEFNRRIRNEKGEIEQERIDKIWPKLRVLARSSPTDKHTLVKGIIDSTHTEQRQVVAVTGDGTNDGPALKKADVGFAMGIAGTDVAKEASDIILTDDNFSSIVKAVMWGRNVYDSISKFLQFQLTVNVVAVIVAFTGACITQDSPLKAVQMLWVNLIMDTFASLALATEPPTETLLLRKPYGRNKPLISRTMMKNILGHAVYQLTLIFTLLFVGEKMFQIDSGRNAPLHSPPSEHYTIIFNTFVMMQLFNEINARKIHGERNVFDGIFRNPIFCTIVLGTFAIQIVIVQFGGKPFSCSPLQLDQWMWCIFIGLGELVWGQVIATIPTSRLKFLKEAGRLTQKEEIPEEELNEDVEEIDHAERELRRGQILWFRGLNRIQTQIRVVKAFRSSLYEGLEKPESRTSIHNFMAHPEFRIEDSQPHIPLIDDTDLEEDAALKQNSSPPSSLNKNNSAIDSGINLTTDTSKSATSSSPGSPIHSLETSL

B1: Cntn1 (protein, UniProt P12960 21-1001)
chain: DFTWHRRYGHGVSEEDKGFGPIFEEQPINTIYPEESLEGKVSLNCRARASPFPVYKWRMNNGDVDLTNDRYSMVGGNLVINNPDKQKDAGVYYCLASNNYGMVRSTEATLSFGYLDPFPPEERPEVKVKEGKGMVLLCDPPYHFPDDLSYRWLLNEFPVFITMDKRRFVSQTNGNLYIANVESSDRGNYSCFVSSPSITKSVFSKFIPLIPIPERTTKPYPADIVVQFKDIYTMMGQNVTLECFALGNPVPDIRWRKVLEPMPSTAEISTSGAVLKIFNIQLEDEGLYECEAENIRGKDKHQARIYVQAFPEWVEHINDTEVDIGSDLYWPCIATGKPIPTIRWLKNGYSYHKGELRLYDVTFENAGMYQCIAENAYGSIYANAELKILALAPTFEMNPMKKKILAAKGGRVIIECKPKAAPKPKFSWSKGTEWLVNSSRILIWEDGSLEINNITRNDGGIYTCFAENNRGKANSTGTLVITNPTRIILAPINADITVGENATMQCAASFDPALDLTFVWSFNGYVIDFNKEITHIHYQRNFMLDANGELLIRNAQLKHAGRYTCTAQTIVDNSSASADLVVRGPPGPPGGLRIEDIRATSVALTWSRGSDNHSPISKYTIQTKTILSDDWKDAKTDPPIIEGNMESAKAVDLIPWMEYEFRVVATNTLGTGEPSIPSNRIKTDGAAPNVAPSDVGGGGGTNRELTITWAPLSREYHYGNNFGYIVAFKPFDGEEWKKVTVTNPDTGRYVHKDETMTPSTAFQVKVKAFNNKGDGPYSLVAVINSAQDAPSEAPTEVGVKVLSSSEISVHWKHVLEKIVESYQIRYWAGHDKEAAAHRVQVTSQEYSARLENLLPDTQYFIEVGACNSAGCGPSSDVIETFTRKAPPSQPPRIISSVRSGSRYIITWDHVVALSNESTVTGYKILYRPDGQHDGKLFSTHKHSIEVPIPRDGEYVVEVRAHSDGGDGVVSQVKISGVSTLS
B2: Ncam2 (protein, UniProt O35136 20-837)
chain: LLQVTISLSKVELSVGESKFFTCTAIGEPESIDWYNPQGEKIISTQRVMLQKEGVRSRLTIYNANIEDAGIYRCQATDAKGQTQEATVVLEIYQKLTFREVVSPQEFKQGEDAEVVCRVSSSPAPAVSWLYHNEEVTTIPDNRFAVLANNNLQILNINKSDEGIYRCEGRVEARGEIDFRDIIVIVNVPPAIMMPQKSFNATAERGEEMTLTCKASGSPDPTISWFRNGKLIEENEKYILKGSNTELTVRNIINKDGGSYVCKATNKAGEDQKQAFLQVFVQPHILQLKNETTSENGHVTLVCEAEGEPVPEITWKRAIDGVMFSEGDKSPDGRIEVKGQHGRSSLHIRDVKLSDSGRYDCEAASRIGGHQRSMHLDIEYAPKFVSNQTMYYSWEGNPINISCDVTANPPASIHWRREKLLLPAKNTTHLKTHSVGRKMILEIAPTSDNDFGRYNCTATNRIGTRFQEYILELADVPSSPHGVKIIELSQTTAKISFNKPESHGGVPIHHYQVDVKEVASETWKIVRSHGVQTMVVLSSLEPNTTYEIRVAAVNGKGQGDYSKIEIFQTLPVREPSPPSIHGQPSSGKSFKISITKQDDGGAPILEYIVKYRSKDKEDQWLEKKVQGNKDHIILEHLQWTMGYEVQITAANRLGYSEPTVYEFSMPPKPNIIKDTLFNGLGLGAIIGLGVAALLLILVVTDVSCFFIRQCGLLMCITRRMCGKKSGSSGKSKELEEGKAAYLKDGSKEPIVEMRTEDERITNHEDGSPVNEPNETTPLTEPEKLPLKEENGKEVLNAETIEIKVSNDIIQSKEDDIKA
B3: Cadherin-13 (protein, UniProt Q9WTR5 139-693)
chain: SIVVSPILIPENQRQPFPRDVGKVVDSDRPEGSKFRLTGKGVDQDPKGTFRINENTGSVSVTRTLDRETIATYQLYVETTDASGKTLEGPVPLEVIVIDQNDNRPIFREGPYIGHVMEGSPTGTTVMRMTAFDADDPATDNALLRYNIRQQTPDKPSPNMFYIDPEKGDIVTVVSPALLDRETLENPKYELIIEAQDMAGLDVGLTGTATATIVIDDKNDHSPKFTKKEFQATVEEGAVGVIVNLTVEDKDDPTTGAWRAAYTIINGNPGQSFEIHTNPQTNEGMLSVVKPLDYEISAFHTLLIKVENEDPLVPDVSYGPSSTATVHITVLDVNEGPVFYPDPMMVTKQENISVGSVLLTVNATDPDSLQHQTIRYSIYKDPAGWLSINPINGTVDTTAVLDRESPFVHNSVYTALFLAIDSGNPPATGTGTLLITLEDINDNAPVIYPTVAEVCDDARNLSVVILGASDKDLHPNTDPFKFEIHKQTVPDKVWKISKINNTHALVSLLQNLNKANYNLPIMVTDSGKPPMTNITDLRVQVCSCKNSKVDCNGAG
B4: Kcc2 (protein, UniProt Q91V14 1-1138)
chain: MSRRFTVTSLPPAASAASADPESRRHSVADPRRLPREDVKGDGNPKESSPFINSTDTEKGREYDGRNMALFEEEMDTSPMVSSLLSGLANYTNLPQGSREHEEAENNEGGKKKPVQAPRMGTFMGVYLPCLQNIFGVILFLRLTWVVGIAGIMESFCMVFICCSCTMLTAISMSAIATNGVVPAGGSYYMISRSLGPEFGGAVGLCFYLGTTFAGAMYILGTIEILLAYLFPAMAIFKAEDASGEAAAMLNNMRVYGTCVLTCMATVVFVGVKYVNKFALVFLGCVILSILAIYAGVIKSAFDPPNFPICLLGNRTLSRHGFDVCAKLAWEGNETVTTRLWGLFCSSRLLNATCDEYFTRNNVTEIQGIPGAASGLIKENLWSSYLTKGVIVERRGMPSVGLADGTPVDMDHPYVFSDMTSYFTLLVGIYFPSVTGIMAGSNRSGDLRDAQKSIPTGTILAIATTSAVYISSVVLFGACIEGVVLRDKFGEAVNGNLVVGTLAWPSPWVIVIGSFFSTCGAGLQSLTGAPRLLQAISRDGIVPFLQVFGHGKANGEPTWALLLTACICEIGILIASLDEVAPILSMFFLMCYMFVNLACAVQTLLRTPNWRPRFRYYHWTLSFLGMSLCLALMFICSWYYALVAMLIAGLIYKYIEYRGAEKEWGDGIRGLSLSAARYALLRLEEGPPHTKNWRPQLLVLVRVDQDQNVVHPQLLSLTSQLKAGKGLTIVGSVLEGTFLDNHPQAQRAEESIRRLMEAEKVKGFCQVVISSNLRDGVSHLIQSGGLGGLQHNTVLVGWPRNWRQKEDHQTWRNFIELVRETTAGHLALLVTKNVSMFPGNPERFSEGSIDVWWIVHDGGMLMLLPFLLRHHKVWRKCKMRIFTVAQMDDNSIQMKKDLTTFLYHLRITAEVEVVEMHESDISAYTYEKTLVMEQRSQILKQMHLTKNEREREIQSITDESRGSIRRKNPANPRLRLNVPEETACDNEEKPEEEVQLIHDQSAPSCPSSSPSPGEEPEGERETDPEVHLTWTKDKSVAEKNKGPSPVSSEGIKDFFSMKPEWENLNQSNVRRMHTAVRLNEVIVNKSRDAKLVLLNMPGPPRNRNGDENYMEFLEVLTEQLDRVMLVRGGGREVITIYS
B5: Igsf8 (protein, UniProt Q8R366 26-611)
chain: RQVHVPRGPLYRVAGTAVSISCNVSDYEGPAQQDFEWFMYRPEAPATSLGIVSTKDSQFSYAVFGPRVASGDLQVQRLKGDSVVLKIARLQAQDSGFYECYTPSTDTQYLGNYSAKVELRVLPDELQVSAAPPGPRGRQAATSPSRLTVHEGQELALGCLAQTKTKKHTHLSVSFGRAIPEAPVGRATLQEVVGLRSDMAVEAGAPYAERLASGELRLSKEGTDRYRMVVGGAQAGDSGTYHCTAAEWIQDPDGSWVQVAEKRAVLAHVDVQTLSSQLAVTVGPGERRIGPGEPLELLCNVSGALPPPGRHAAYSVGWEMAPAGAPGPGRLVAQLDTEGIGSLGPGYEDRHIAMEKVASRTYRLRLEAARPADAGTYRCLAKAYVRGSGTRLREAASARSRPLPVHVREEGVVLEAVAWLAGGTVYRGETASLLCNISVRGGPPGLRLAASWWVERPEEGELSSGPAQLVGGVGQDGVAELGVRPGGGPVSVELVGPRSHRLRLHGLGPEDEGIYHCAPSAWVQHADYSWYQAGSARSGPVTVYPYTHAVDTLFVPLLVGTGVALVTGASVLATITCCFMKRMRKR
B6: Cadm3 (protein, UniProt Q99N28 23-396)
chain: NLSQDDSQPWTSDETVVAGGTVVLKCQVKDHEDSSLQWSNPAQQTLYFGEKRALRDNRIQLVSSTPHELSISISNVALADEGEYTCSIFTMPVRTAKSLVTVLGIPQKPIITGYKSSLREKETATLNCQSSGSKPAAQLTWRKGDQELHGDQTRIQEDPNGKTFTVSSSVSFQVTREDDGANIVCSVNHESLKGADRSTSQRIEVLYTPTAMIRPEPAHPREGQKLLLHCEGRGNPVPQQYVWVKEGSEPPLKMTQESALIFPFLNKSDSGTYGCTATSNMGSYTAYFTLNVNDPSPVPSSSSTYHAIIGGIVAFIVFLLLILLIFLGHYLIRHKGTYLTHEAKGSDDAPDADTAIINAEGGQSGGDDKKEYFI

molecular target: SEAD1 (Synthetic Ectodomain of Alpha2Delta-1), recombinant mouse soluble α2δ-1 (mouse) (UniProt O08532); experiment: affinity purification with mass spectrometry

Row | binding | Molecule
1 | binds | L1Cam (from UniProt P11627 20-1260)
2 | binds | Atp2b2 (from UniProt Q9R0K7 1-1198)
3 | binds | B1
4 | binds | B2
5 | binds | B3
6 | binds | B4
7 | binds | B5
8 | binds | B6

Results are given in words; binding and its absence hold for the method and conditions named. Binding seen in cells or lysates may run through a third protein. A yes stands for co-enrichment or nearness to the bait. Other partners may have been found.
